{"source": "PubChem BioAssay AID817", "about": "(Emory University Molecular Libraries Screening Center, 2007)", "note": "The list shows a part of the results."}
{"assay": "growth rescue of sdo1-depleted yeast, primary screen, S. cerevisiae, bone marrow failure model (AID 817);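 also: z-score against mean and SD of all compound wells on the same plate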", "conditions": "S. cerevisiae sdo1-depleted JHY4D growth rescue, OD600; measured here: growth rescue at 24 h; at 10 µM; stronger effect = higher value; pdr5 snq2 efflux-pump mutant strain"}
{"compound": "Fc1ccccc1NC1CCN(Cc2ccccc2)CC1", "z-score": -0.75}
{"compound": "CCN1CCC(Nc2cccc(F)c2)CC1", "z-score": 0.05}
{"compound": "CCOc1ncccc1C(=O)NCC1(N2CCOCC2)CCCCC1", "z-score": 0.75}
{"compound": "CCC(CO)(C(=O)OC1CN2CCC1CC2)c1ccccc1", "note": "(stereo not drawn)", "z-score": 0.07}
{"compound": "N/C(=N\\O)c1c(N)no[n+]1[O-]", "z-score": 1.42}
{"compound": "O=C(OC1CN2CCC1CC2)C1c2ccccc2C=Cc2ccccc21", "note": "(stereo not drawn)", "z-score": -0.48}
{"compound": "c1ccc(CN2CCC(Nc3ccccc3)CC2)cc1", "z-score": -0.76}
{"compound": "N#CC1(Nc2ccccc2)CCN(CCc2ccccc2)CC1", "z-score": 0.89}
{"compound": "CN1CCN(CCOC(=O)C(O)(c2ccccc2)c2ccccc2)CC1", "z-score": -0.92}
{"compound": "O=C(NCC1(N2CCOCC2)CCCCC1)c1cc(=O)[nH]c2ccccc12", "z-score": 0.41}
{"compound": "O=C(NCC1(N2CCOCC2)CCCCC1)c1cc2ccccc2o1", "z-score": -0.38}
{"compound": "O=C(OC1CN2CCC1CC2)C1c2ccccc2Oc2ccccc21", "note": "(stereo not drawn)", "z-score": -0.15}
{"compound": "COc1ccc(NC2CCN(CCc3ccccc3)CC2)c(OC)c1", "z-score": -0.14}
